In PubChem BioAssay AID2516 (University of Pittsburgh Molecular Library Screening Center, 2010):
All entries are inconclusive by the source's own rule. Clear calls are listed elsewhere.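 The calls were made as follows: active = at least 50% inhibition in the glucose-6-phosphate dehydrogenase coupled counterscreen; inconclusive = no clear call, values can overlap the other calls; inactive = inhibition below 50%.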

Tested on: glucose-6-phosphate dehydrogenase [Leuconostoc mesenteroides]
Assay: Leuconostoc G6PDH inhibition, confirmation, counter-screen for TbHK1 inhibitor project, biochemical, DPI cherry-picked compounds, single concentration (AID 2516)
Conditions: purified G6PDH, NADH absorbance, 1 h; at 10 µM; stronger effect = higher value
In short: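 Test system – purified G6PDH enzyme in a coupled counterscreen format · Quantity – G6PDH enzyme at 0.006 mU/µL final · Also added – 0.2 mM G6P plus 0.6 mM NAD+ · Doses – one dose, 10 µM · Times – 1 h reaction, room temperature · Technique – absorbance after 50 mM EDTA stop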

`Cn1nc(-c2ccccn2)nc2c(=O)n(C)c(=O)nc1-2` was tested. Which inhibition did it give?
Its inhibition is inconclusive: 49.8%.
